# Results: the supplement of paper PMC8728848
# Some of the results follow.
# B1: MFG-E8 (Homo sapiens), Q08431 (protein)
# chain: MPRPRLLAALCGALLCAPSLLVALDICSKNPCHNGGLCEEISQEVRGDVFPSYTCTCLKGYAGNHCETKCVEPLGLENGNIANSQIAASSVRVTFLGLQHWVPELARLNRAGMVNAWTPSSNDDNPWIQVNLLRRMWVTGVVTQGASRLASHEYLKAFKVAYSLNGHEFDFIHDVNKKHKEFVGNWNKNAVHVNLFETPVEAQYVRLYPTSCHTACTLRFELLGCELNGCANPLGLKNNSIPDKQITASSSYKTWGLHLFSWNPSYARLDKQGNFNAWVAGSYGNDQWLQVDLGSSKEVTGIITQGARNFGSVQFVASYKVAYSNDSANWTEYQDPRTGSSKIFPGNWDNHSHKKNLFETPILARYVRILPVAWHNRIALRLELLGC
# Legend:
# Test in all cases: glycan array binding signal (z-score within array); higher = stronger binding
# Details in all cases: glycan notation: IUPAC condensed, linker removed
# [1] = target: Neu5Ac(a2-6)Gal(b1-4)GlcNAc(b1-2)Man(a1-3)[GlcNAc(b1-2)Man(a1-6)]Man(b1-4)GlcNAc(b1-4)GlcNAc
# Method in brief: (§1)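 Glycan array data came from 3228 arrays in the Consortium for Functional Glycomics database, and only arrays with an available protein sequence were kept. Glycan names were put into IUPAC-condensed notation, and columns mapping to the same glycan were averaged. The binding signal is a within-array Z-score, averaged across arrays of one protein sequence run at different concentrations or buffers and across linkers. A negative Z-score can be read as non-binding.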
# [2] = target: Neu5Ac(a2-6)Gal(b1-4)GlcNAc(b1-2)Man(a1-3)[GlcNAc(b1-2)Man(b1-4)GlcNAc(b1-2)Man(a1-6)]Man(b1-4)GlcNAc(b1-4)GlcNAc
# Method in brief: as §1
# [3] = target: Neu5Ac(a2-6)Gal(b1-4)GlcNAc(b1-2)Man(a1-3)[Man(a1-6)]Man(b1-4)GlcNAc(b1-4)GlcNAc
# Method in brief: as §1
# [4] = target: Neu5Ac(a2-6)Gal(b1-4)GlcNAc(b1-2)Man(a1-3)[Neu5Ac(a2-6)Gal(b1-4)GlcNAc(b1-2)Man(a1-6)]Man(b1-4)GlcNAc(b1-4)GlcNAc
# Method in brief: as §1
# [5] = target: Neu5Ac(a2-6)Gal(b1-4)GlcNAc(b1-2)Man(a1-6)Man(b1-4)GlcNAc(b1-4)GlcNAc
# Method in brief: as §1
# [6] = target: Neu5Ac(a2-6)Gal(b1-4)GlcNAc(b1-2)Man(a1-6)[Gal(b1-4)GlcNAc(b1-2)Man(a1-3)]Man(b1-4)GlcNAc(b1-4)GlcNAc
# Method in brief: as §1
# [7] = target: Neu5Ac(a2-6)Gal(b1-4)GlcNAc(b1-2)Man(a1-6)[GlcNAc(b1-2)Man(a1-3)]Man(b1-4)GlcNAc(b1-4)GlcNAc
# Method in brief: as §1
# [8] = target: Neu5Ac(a2-6)Gal(b1-4)GlcNAc(b1-2)Man(a1-6)[Man(a1-3)]Man(b1-4)GlcNAc(b1-4)GlcNAc
# Method in brief: as §1
# [9] = target: Neu5Ac(a2-6)Gal(b1-4)GlcNAc(b1-3)Gal(b1-3)GlcNAc
# Method in brief: as §1
# [10] = target: Neu5Ac(a2-6)Gal(b1-4)GlcNAc(b1-3)Gal(b1-4)GlcNAc
# Method in brief: as §1
# [11] = target: Neu5Ac(a2-6)Gal(b1-4)GlcNAc(b1-3)Gal(b1-4)GlcNAc(b1-3)Gal(b1-4)GlcNAc
# Method in brief: as §1
# [12] = target: Neu5Ac(a2-6)Gal(b1-4)GlcNAc(b1-3)Gal(b1-4)[Fuc(a1-3)]GlcNAc(b1-3)Gal(b1-4)[Fuc(a1-3)]GlcNAc
# Method in brief: as §1
# [13] = target: Neu5Ac(a2-6)Gal(b1-4)GlcNAc(b1-3)GalNAc
# Method in brief: as §1
# [14] = target: Neu5Ac(a2-6)Gal(b1-4)GlcNAc6S
# Method in brief: as §1
# [15] = target: Neu5Ac(a2-6)GalNAc
# Method in brief: as §1
# [16] = target: Neu5Ac(a2-6)GalNAc(b1-4)GlcNAc
# Method in brief: as §1
# [17] = target: Neu5Ac(a2-6)GlcNAc(b1-4)GlcNAc
# Method in brief: as §1
# [18] = target: Neu5Ac(a2-6)GlcNAc(b1-4)GlcNAc(b1-4)GlcNAc
# Method in brief: as §1
# [19] = target: Neu5Ac(a2-8)Neu5Ac
# Method in brief: as §1
# [20] = target: Neu5Ac(a2-8)Neu5Ac(a2-3)Gal(b1-3)GalNAc(b1-4)[Neu5Ac(a2-8)Neu5Ac(a2-3)]Gal(b1-4)Glc
# Method in brief: as §1
# [21] = target: Neu5Ac(a2-8)Neu5Ac(a2-3)Gal(b1-4)Glc
# Method in brief: as §1
# [22] = target: Neu5Ac(a2-8)Neu5Ac(a2-3)[Gal(b1-3)GalNAc(b1-4)]Gal(b1-4)Glc
# Method in brief: as §1
# [23] = target: Neu5Ac(a2-8)Neu5Ac(a2-3)[GalNAc(b1-4)]Gal(b1-4)Glc
# Method in brief: as §1
# [24] = target: Neu5Ac(a2-8)Neu5Ac(a2-8)Neu5Ac
# Method in brief: as §1
# [25] = target: Neu5Ac(a2-8)Neu5Ac(a2-8)Neu5Ac(a2-3)Gal(b1-4)Glc
# Method in brief: as §1
# [26] = target: Neu5Ac(a2-8)Neu5Ac(a2-8)Neu5Ac(a2-3)[GalNAc(b1-4)]Gal(b1-4)Glc
# Method in brief: as §1
# [27] = target: Neu5Ac(a2-8)Neu5Ac(a2-8)Neu5Ac(a2-8)Neu5Ac(a2-3)[GalNAc(b1-4)]Gal(b1-4)Glc
# Method in brief: as §1
# [28] = target: Neu5Ac(b2-6)Gal(b1-4)GlcNAc
# Method in brief: as §1
# [29] = target: Neu5Ac(b2-6)GalNAc
# Method in brief: as §1
# [30] = target: Neu5Ac9Ac(a2-3)Gal(b1-3)GlcNAc
# Method in brief: as §1
# [31] = target: Neu5Ac9Ac(a2-3)Gal(b1-4)GlcNAc
# Method in brief: as §1
# [32] = target: Neu5Ac9Ac(a2-6)Gal(b1-4)GlcNAc
# Method in brief: as §1
# [33] = target: Neu5Gc(a2-3)Gal(b1-3)GlcNAc
# Method in brief: as §1
# [34] = target: Neu5Gc(a2-3)Gal(b1-3)[Fuc(a1-4)]GlcNAc
# Method in brief: as §1
# [35] = target: Neu5Gc(a2-3)Gal(b1-4)Glc
# Method in brief: as §1
# [36] = target: Neu5Gc(a2-3)Gal(b1-4)GlcNAc
# Method in brief: as §1
# [37] = target: Neu5Gc(a2-3)Gal(b1-4)[Fuc(a1-3)]GlcNAc
# Method in brief: as §1
# [38] = target: Neu5Gc(a2-6)Gal(b1-4)GlcNAc
# Method in brief: as §1
# [39] = target: Neu5Gc(a2-6)GalNAc
# Method in brief: as §1
# [40] = target: Neu5Gc(b2-6)Gal(b1-4)GlcNAc
# Method in brief: as §1
binder,measurement,setting,value
B1,glycan array binding signal (z-score),[1],1.68
same,glycan array binding signal (z-score),[2],1.69
same,glycan array binding signal (z-score),[3],1.41
same,glycan array binding signal (z-score),[4],1.09
same,glycan array binding signal (z-score),[5],-0.427
same,glycan array binding signal (z-score),[6],0.119
same,glycan array binding signal (z-score),[7],0.049
same,glycan array binding signal (z-score),[8],-0.067
same,glycan array binding signal (z-score),[9],-0.432
same,glycan array binding signal (z-score),[10],0.298
same,glycan array binding signal (z-score),[11],-0.226
same,glycan array binding signal (z-score),[12],-0.74
same,glycan array binding signal (z-score),[13],1.82
same,glycan array binding signal (z-score),[14],-0.048
same,glycan array binding signal (z-score),[15],-0.082
same,glycan array binding signal (z-score),[16],-0.42
same,glycan array binding signal (z-score),[17],-0.619
same,glycan array binding signal (z-score),[18],-0.21
same,glycan array binding signal (z-score),[19],0.218
same,glycan array binding signal (z-score),[20],-0.776
same,glycan array binding signal (z-score),[21],0.83
same,glycan array binding signal (z-score),[22],-0.532
same,glycan array binding signal (z-score),[23],0.445
same,glycan array binding signal (z-score),[24],0.328
same,glycan array binding signal (z-score),[25],-0.286
same,glycan array binding signal (z-score),[26],1.06
same,glycan array binding signal (z-score),[27],-0.155
same,glycan array binding signal (z-score),[28],-0.205
same,glycan array binding signal (z-score),[29],1.84
same,glycan array binding signal (z-score),[30],-0.732
same,glycan array binding signal (z-score),[31],-0.402
same,glycan array binding signal (z-score),[32],0.932
same,glycan array binding signal (z-score),[33],-0.636
same,glycan array binding signal (z-score),[34],0.135
same,glycan array binding signal (z-score),[35],-0.361
same,glycan array binding signal (z-score),[36],1
same,glycan array binding signal (z-score),[37],-0.483
same,glycan array binding signal (z-score),[38],-0.196
same,glycan array binding signal (z-score),[39],1.08
same,glycan array binding signal (z-score),[40],-0.408

# Pulled one by one from above:
binder,measurement,setting,value
B1,glycan array binding signal (z-score),[37],-0.483
same,glycan array binding signal (z-score),[23],0.445
